{"sequences": {"note": "Protein sequences, listed by entry. Tags and fused reporters are not part of them.", "UniProt P04551": "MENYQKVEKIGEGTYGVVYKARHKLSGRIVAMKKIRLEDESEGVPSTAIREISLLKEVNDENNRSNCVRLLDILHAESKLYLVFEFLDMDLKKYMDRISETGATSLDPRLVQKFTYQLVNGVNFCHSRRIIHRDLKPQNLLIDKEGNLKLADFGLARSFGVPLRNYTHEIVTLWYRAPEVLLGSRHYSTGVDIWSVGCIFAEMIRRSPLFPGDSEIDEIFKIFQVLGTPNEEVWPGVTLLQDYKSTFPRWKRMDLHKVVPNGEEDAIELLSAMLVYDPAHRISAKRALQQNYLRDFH"}, "source": "paper PMC3228823", "binders": {"B1": {"name": "Tip1p, protein of the CLIP-170 family (nascent peptide on the polysome) (protein, UniProt P79065 1-461)", "chain": "MFPLGSVVEVITGERGFVRYAGEVENRKGVYVGLELLPEFAEFGKNRGVVDGREYFKTKNNEKTGIFVPFDKCKLASSISSSPSPKIDGTAASIGMGFPPMSPNLQSSIPRLTNVSSSSNLSMNTISSTALTPTEKILQKRIEDLLYERQNHQQQLEEVLATVDQLQSLVTNFNDQQDEVDELRERITLKEERIQQMRNEASQRRFEFKTTIECLEESSNRAIETYENRIAELEAQLEMYMSGKSEDDLLFSLQQERDYALNQVEILQERVDTLMKQKANSSTANEKLSHMESSSPTLTNASFESPKRGKGSNDLPENHPQRRQTLEFYEIEIEVLREKVEKLQALSDEKDFYISKLEKSLDRNDTTPVPSDEKLSNYAAEKENLVSRISELEHTIEQLTINNERDNERMSPAEFELETTQEVEENDSDSHDDEETWCEVCETNNHSLQECPTVFGSTDEA"}, "B2": {"name": "Rum1p, CDK inhibitor (nascent peptide on the polysome) (protein, UniProt P40380 1-230)", "chain": "MEPSTPPMRGLCTPSTPESPGSFKGVIDASLEGNSSIMIDEIPESDLPAPQVSTFPPTPAKTPKKQLLPNLMLQDRSNSLERCMEEDREHNPFLSSSDNQLLSRKKRKPTPPPSDGLYYVFRGKRIKKSFRPGTDLSTFKPKLLFADSAPSSSSDNPTSSVDLNDYSQIGILPPNLNSIGNKMFSLKSRVPSSSSGSFVAPPPQMRLPAYSSPQKSRSNTKDENRHNLLR"}}, "key": {"[1]": {"target": "T1, Tea2p kinesin (Schizosaccharomyces pombe) (UniProt Q1MTQ1)", "T1 sequence": "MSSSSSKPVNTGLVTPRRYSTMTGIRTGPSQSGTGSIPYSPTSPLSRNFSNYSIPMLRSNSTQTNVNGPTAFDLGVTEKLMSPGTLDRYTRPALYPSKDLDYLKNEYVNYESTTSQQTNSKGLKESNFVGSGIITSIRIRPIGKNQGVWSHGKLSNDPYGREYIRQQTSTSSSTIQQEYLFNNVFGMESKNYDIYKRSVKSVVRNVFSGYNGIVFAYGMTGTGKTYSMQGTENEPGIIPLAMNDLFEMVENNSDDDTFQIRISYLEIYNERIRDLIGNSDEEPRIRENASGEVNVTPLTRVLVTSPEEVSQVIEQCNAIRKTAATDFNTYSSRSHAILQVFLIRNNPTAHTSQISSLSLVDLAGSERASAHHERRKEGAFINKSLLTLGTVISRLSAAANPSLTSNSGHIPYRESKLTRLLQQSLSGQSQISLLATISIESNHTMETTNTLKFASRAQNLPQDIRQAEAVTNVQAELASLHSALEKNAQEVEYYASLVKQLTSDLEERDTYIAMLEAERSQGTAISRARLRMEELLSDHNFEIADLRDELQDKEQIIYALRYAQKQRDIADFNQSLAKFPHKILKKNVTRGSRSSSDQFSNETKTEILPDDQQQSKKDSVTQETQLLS", "assay": "RIp-chip (immunoprecipitation of the tagged bait, co-purified mRNAs read on DNA microarrays); bait immunoprecipitated from S. pombe extracts (antibody against protein A for TAP tags, 9E11 for myc tags); the partner protein is inferred from its mRNA; compared: +ATG and untranslatable -ATG constructs, cells with 1 mM puromycin (32°C, 15 minutes), extracts with EDTA"}, "[2]": {"target": "Cdc2p cyclin-dependent kinase (Schizosaccharomyces pombe) (UniProt P04551)", "assay": "RIp-chip (immunoprecipitation of the tagged bait, co-purified mRNAs read on DNA microarrays); bait immunoprecipitated from S. pombe extracts (antibody against protein A for TAP tags, 9E11 for myc tags); the partner protein is inferred from its mRNA; compared: +ATG and untranslatable -ATG constructs, cells with 1 mM puromycin (32°C, 15 minutes), extracts with EDTA"}}, "note": "No constants are given. Whether binding was seen depends on the method and setting. Some results given as binding are weak or reduced against the parent protein; the word gives no strength. For some assays here: Sequences can lack the tags named with a protein.", "data": [{"binder": "B1", "values": [{"measurement": "binding", "setting": "[1]", "value": "binds"}]}, {"binder": "B2", "values": [{"measurement": "binding", "setting": "[2]", "value": "binds"}]}]}
